The target of this experiment is HA-Yrt (D. melanogaster) (UniProt Q9VFU8). Description: co-IP.

Results are given in words; binding and its absence hold for the method and conditions named. In cells and extracts the contact can be indirect. Binding can be weak; no strength is given.

With “FLAG-tagged full length (FL) Yrt (from UniProt Q9VFU8)”, the binding result is reported as “binds”.
